Results published in US20160279215A1, “NOVEL PEPTIDES AND COMBINATION OF PEPTIDES FOR USE IN IMMUNOTHERAPY AGAINST VARIOUS TUMORS” (immatics biotechnologies GmbH, priority 2015, published 2016).
For some assays here: Expression values are those of the mRNA of the gene that encodes the peptide; a gene is named only where it was looked up.

Legend:
[1] = system: source genes of the peptides (mRNA) in tumor and normal tissue; assay: Expression profiling of source genes by Affymetrix microarrays (target coverage); set-up: species or system human; settings: over-expression = more than 1.5-fold higher expression on tumor vs. normal tissue with highest expression, gene with minimal coverage decisive; for Target coverage for source genes of selected peptides, BPHI/PCA (%): BPHI/PCA (prostate cancer) samples; for Target coverage for source genes of selected peptides, CRC (%): CRC tumor samples; for Target coverage for source genes of selected peptides, GB (%): GB tumor samples; for Target coverage for source genes of selected peptides, GC (%): GC tumor samples; for Target coverage for source genes of selected peptides, HCC (%): HCC tumor samples; for Target coverage for source genes of selected peptides, NSCLC (%): NSCLC tumor samples; for Target coverage for source genes of selected peptides, PC (%): PC tumor samples; for Target coverage for source genes of selected peptides, RCC (%): RCC tumor samples
[2] = Identification and label-free relative LC-MS quantitation of HLA-presented peptides on tumor and normal tissue samples (XPRESIDENT presentation profiles); set-up: species or system human; settings: for Entities of particular interest: entities where the peptide was over-presented on cancer samples compared to normal tissues; for Additional entities of particular interest (presentation of selected peptides across entities): tumor entities on which the HLA-presented peptide was found, entity abbreviations defined in the title of Table 4B

| Substance | Target coverage for source genes of selected peptides, BPHI/PCA (%) [1] | Target coverage for source genes of selected peptides, CRC (%) [1] | Target coverage for source genes of selected peptides, GB (%) [1] | Target coverage for source genes of selected peptides, GC (%) [1] | Target coverage for source genes of selected peptides, HCC (%) [1] | Target coverage for source genes of selected peptides, NSCLC (%) [1] | Target coverage for source genes of selected peptides, PC (%) [1] | Target coverage for source genes of selected peptides, RCC (%) [1] | Entities of particular interest [2] | Additional entities of particular interest (presentation of selected peptides across entities) [2] |
| --- | --- | --- | --- | --- | --- | --- | --- | --- | --- | --- |
| 247: peptide found in CDK1 (gene looked up) (NLLIDDKGTIKL; listed as Homo sapiens) [compound 247] | I (<19% over-expression = I) | IV (>70% = IV) | IV (>70% = IV) | IV (>70% = IV) | II (20-49% = II) | IV (>70% = IV) | III (50-69% = III) | II (20-49% = II) | NSCLC, HCC, MEL, CRC, PC | – |
| 33: peptide found in MUC16 (gene looked up) (TLDRNSLYV; listed as Homo sapiens) [compound 33] | II (20-49% = II) | I (<19% over-expression = I) | I (<19% over-expression = I) | I (<19% over-expression = I) | I (<19% over-expression = I) | III (50-69% = III) | II (20-49% = II) | I (<19% over-expression = I) | – | OC, UTC |
| 93: peptide found in AURKA (gene looked up) (RLYGYFHDA; listed as Homo sapiens) [compound 93] | I (<19% over-expression = I) | III (50-69% = III) | II (20-49% = II) | III (50-69% = III) | II (20-49% = II) | II (20-49% = II) | II (20-49% = II) | I (<19% over-expression = I) | NSCLC, PC | – |
| 36: peptide found in KIF11 (gene looked up) (TVLQELINV; listed as Homo sapiens) [compound 36] | I (<19% over-expression = I) | II (20-49% = II) | I (<19% over-expression = I) | I (<19% over-expression = I) | I (<19% over-expression = I) | I (<19% over-expression = I) | I (<19% over-expression = I) | I (<19% over-expression = I) | NSCLC, PC, OSCAR | UBC, UTC, MEL, CRC, AML, NHL |
| 121: peptide found in TRIP13 (gene looked up) (ALYVQAPTV; listed as Homo sapiens) [compound 121] | I (<19% over-expression = I) | IV (>70% = IV) | IV (>70% = IV) | IV (>70% = IV) | II (20-49% = II) | IV (>70% = IV) | IV (>70% = IV) | II (20-49% = II) | – | NSCLC, UTC, NHL |
| 37: peptide found in KIF11 (gene looked up) (QIVELIEKI; listed as Homo sapiens) [compound 37] | I (<19% over-expression = I) | II (20-49% = II) | I (<19% over-expression = I) | I (<19% over-expression = I) | I (<19% over-expression = I) | I (<19% over-expression = I) | I (<19% over-expression = I) | I (<19% over-expression = I) | GC, NSCLC, OSCAR | – |
| 287: peptide found in IGF2BP3 (gene looked up) (KIQEILTQV; listed as Homo sapiens) [compound 287] | I (<19% over-expression = I) | II (20-49% = II) | IV (>70% = IV) | II (20-49% = II) | III (50-69% = III) | IV (>70% = IV) | IV (>70% = IV) | II (20-49% = II) | GB, GC, NSCLC, HCC, CLL, OC, MEL, RCC, CRC, PC, OSCAR | – |
| 58: peptide found in BUB1 (gene looked up) (HLLGEGAFAQV; listed as Homo sapiens) [compound 58] | I (<19% over-expression = I) | III (50-69% = III) | III (50-69% = III) | III (50-69% = III) | I (<19% over-expression = I) | III (50-69% = III) | II (20-49% = II) | I (<19% over-expression = I) | NSCLC, PC | – |
| 104: peptide found in KLK3 (gene looked up) (DLPTQEPALGTT; listed as Homo sapiens) [compound 104] | IV (>70% = IV) | I (<19% over-expression = I) | I (<19% over-expression = I) | I (<19% over-expression = I) | I (<19% over-expression = I) | I (<19% over-expression = I) | – | I (<19% over-expression = I) | – | BPH |
| 70: peptide found in KIF4A (gene looked up) (GLTEKTVLV; listed as Homo sapiens) [compound 70] | I (<19% over-expression = I) | IV (>70% = IV) | III (50-69% = III) | III (50-69% = III) | I (<19% over-expression = I) | II (20-49% = II) | II (20-49% = II) | I (<19% over-expression = I) | NSCLC, PC | CRC, AML, NHL |
| 285: peptide found in NCAPG2 (gene looked up) (MLLDTVQKV; listed as Homo sapiens) [compound 285] | I (<19% over-expression = I) | II (20-49% = II) | I (<19% over-expression = I) | I (<19% over-expression = I) | I (<19% over-expression = I) | I (<19% over-expression = I) | I (<19% over-expression = I) | I (<19% over-expression = I) | – | NSCLC |
| 239: peptide found in KIF11 (gene looked up) (VIIKGLEEITV; listed as Homo sapiens) [compound 239] | I (<19% over-expression = I) | II (20-49% = II) | I (<19% over-expression = I) | I (<19% over-expression = I) | I (<19% over-expression = I) | I (<19% over-expression = I) | I (<19% over-expression = I) | I (<19% over-expression = I) | GC, NSCLC, HCC, OC, MEL, CRC, PC | CLL, SCLC, UBC, UTC, AML, NHL |
